According to the supplement of paper PMC10849652:
Some of the results follow.

Sequences of proteins named here, by UniProt entry; tags and fusion partners are left off. A change or cut given only in a name is not applied to a line headed by its entry.
UniProt Q9Y5X2: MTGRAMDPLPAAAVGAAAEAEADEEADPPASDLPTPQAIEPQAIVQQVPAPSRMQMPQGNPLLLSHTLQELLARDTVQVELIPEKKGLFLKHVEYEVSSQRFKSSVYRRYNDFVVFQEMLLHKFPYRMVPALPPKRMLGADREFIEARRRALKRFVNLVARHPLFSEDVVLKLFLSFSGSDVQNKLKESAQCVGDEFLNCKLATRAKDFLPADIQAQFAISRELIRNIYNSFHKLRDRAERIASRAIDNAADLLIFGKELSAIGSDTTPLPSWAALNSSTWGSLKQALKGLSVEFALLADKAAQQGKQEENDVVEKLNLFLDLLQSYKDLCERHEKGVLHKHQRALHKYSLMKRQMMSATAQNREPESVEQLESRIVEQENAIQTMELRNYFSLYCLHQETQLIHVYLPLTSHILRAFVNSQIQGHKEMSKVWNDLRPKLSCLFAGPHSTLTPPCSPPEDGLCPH
UniProt A6NHR9: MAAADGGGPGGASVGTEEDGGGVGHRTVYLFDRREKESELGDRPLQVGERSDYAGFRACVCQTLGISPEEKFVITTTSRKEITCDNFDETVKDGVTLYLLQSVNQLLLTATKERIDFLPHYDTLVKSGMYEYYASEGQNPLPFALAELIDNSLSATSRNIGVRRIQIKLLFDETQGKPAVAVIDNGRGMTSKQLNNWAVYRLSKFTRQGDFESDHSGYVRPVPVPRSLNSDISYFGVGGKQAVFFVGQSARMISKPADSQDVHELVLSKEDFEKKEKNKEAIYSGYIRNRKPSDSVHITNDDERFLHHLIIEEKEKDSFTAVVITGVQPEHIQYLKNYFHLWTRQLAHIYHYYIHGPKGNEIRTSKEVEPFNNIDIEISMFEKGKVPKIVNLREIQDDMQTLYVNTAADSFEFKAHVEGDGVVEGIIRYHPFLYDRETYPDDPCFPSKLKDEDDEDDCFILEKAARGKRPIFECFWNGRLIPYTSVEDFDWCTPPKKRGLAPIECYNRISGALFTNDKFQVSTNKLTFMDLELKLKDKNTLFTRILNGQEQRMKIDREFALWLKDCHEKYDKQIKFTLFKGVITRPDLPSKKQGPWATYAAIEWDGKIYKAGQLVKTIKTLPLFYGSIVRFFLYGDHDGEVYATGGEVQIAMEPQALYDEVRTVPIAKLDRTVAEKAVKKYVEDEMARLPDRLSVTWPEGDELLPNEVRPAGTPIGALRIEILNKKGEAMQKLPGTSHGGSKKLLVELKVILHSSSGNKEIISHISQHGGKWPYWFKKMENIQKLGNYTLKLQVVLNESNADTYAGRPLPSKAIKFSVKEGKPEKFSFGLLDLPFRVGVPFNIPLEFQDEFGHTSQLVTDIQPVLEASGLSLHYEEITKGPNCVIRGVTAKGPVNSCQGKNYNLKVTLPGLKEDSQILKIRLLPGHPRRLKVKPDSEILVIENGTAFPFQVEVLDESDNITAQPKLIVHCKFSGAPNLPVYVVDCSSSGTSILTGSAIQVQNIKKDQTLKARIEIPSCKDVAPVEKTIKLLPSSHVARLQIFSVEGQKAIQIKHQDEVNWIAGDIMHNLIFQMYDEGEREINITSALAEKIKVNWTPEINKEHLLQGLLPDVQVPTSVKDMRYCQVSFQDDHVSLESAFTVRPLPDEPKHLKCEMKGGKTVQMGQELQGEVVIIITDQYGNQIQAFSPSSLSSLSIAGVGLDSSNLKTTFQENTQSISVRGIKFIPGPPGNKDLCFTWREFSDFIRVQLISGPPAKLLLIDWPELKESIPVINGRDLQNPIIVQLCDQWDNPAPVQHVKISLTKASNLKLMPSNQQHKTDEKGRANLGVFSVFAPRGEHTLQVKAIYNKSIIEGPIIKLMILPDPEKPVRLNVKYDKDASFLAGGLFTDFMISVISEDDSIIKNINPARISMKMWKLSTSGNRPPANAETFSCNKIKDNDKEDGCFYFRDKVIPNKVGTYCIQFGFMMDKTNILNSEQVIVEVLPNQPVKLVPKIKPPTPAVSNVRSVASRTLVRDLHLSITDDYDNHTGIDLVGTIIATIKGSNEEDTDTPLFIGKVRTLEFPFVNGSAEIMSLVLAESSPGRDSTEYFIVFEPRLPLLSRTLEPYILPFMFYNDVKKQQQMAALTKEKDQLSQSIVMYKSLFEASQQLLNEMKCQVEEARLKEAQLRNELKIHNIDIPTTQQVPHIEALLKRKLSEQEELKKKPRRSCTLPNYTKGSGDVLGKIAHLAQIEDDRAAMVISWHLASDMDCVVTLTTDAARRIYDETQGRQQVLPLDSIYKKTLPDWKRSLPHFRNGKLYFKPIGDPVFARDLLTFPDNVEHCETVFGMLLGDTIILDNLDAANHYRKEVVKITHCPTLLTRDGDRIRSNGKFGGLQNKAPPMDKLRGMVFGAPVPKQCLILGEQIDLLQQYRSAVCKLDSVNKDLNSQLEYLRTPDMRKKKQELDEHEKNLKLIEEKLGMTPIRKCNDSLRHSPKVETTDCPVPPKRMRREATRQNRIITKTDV
UniProt Q9H0W8: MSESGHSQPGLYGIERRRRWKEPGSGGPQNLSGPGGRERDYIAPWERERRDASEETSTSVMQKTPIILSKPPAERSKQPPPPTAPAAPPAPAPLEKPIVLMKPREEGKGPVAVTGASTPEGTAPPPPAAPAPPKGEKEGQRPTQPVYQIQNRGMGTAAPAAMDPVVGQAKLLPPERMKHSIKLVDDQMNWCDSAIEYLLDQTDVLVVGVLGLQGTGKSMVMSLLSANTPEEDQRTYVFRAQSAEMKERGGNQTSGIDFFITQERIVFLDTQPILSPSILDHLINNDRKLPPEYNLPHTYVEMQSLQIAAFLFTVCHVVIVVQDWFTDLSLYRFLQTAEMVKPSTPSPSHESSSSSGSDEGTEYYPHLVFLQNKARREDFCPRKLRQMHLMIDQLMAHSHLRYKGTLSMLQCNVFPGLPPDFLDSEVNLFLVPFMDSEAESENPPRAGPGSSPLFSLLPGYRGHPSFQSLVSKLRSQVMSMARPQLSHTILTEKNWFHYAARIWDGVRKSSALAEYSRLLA
UniProt Q96R06: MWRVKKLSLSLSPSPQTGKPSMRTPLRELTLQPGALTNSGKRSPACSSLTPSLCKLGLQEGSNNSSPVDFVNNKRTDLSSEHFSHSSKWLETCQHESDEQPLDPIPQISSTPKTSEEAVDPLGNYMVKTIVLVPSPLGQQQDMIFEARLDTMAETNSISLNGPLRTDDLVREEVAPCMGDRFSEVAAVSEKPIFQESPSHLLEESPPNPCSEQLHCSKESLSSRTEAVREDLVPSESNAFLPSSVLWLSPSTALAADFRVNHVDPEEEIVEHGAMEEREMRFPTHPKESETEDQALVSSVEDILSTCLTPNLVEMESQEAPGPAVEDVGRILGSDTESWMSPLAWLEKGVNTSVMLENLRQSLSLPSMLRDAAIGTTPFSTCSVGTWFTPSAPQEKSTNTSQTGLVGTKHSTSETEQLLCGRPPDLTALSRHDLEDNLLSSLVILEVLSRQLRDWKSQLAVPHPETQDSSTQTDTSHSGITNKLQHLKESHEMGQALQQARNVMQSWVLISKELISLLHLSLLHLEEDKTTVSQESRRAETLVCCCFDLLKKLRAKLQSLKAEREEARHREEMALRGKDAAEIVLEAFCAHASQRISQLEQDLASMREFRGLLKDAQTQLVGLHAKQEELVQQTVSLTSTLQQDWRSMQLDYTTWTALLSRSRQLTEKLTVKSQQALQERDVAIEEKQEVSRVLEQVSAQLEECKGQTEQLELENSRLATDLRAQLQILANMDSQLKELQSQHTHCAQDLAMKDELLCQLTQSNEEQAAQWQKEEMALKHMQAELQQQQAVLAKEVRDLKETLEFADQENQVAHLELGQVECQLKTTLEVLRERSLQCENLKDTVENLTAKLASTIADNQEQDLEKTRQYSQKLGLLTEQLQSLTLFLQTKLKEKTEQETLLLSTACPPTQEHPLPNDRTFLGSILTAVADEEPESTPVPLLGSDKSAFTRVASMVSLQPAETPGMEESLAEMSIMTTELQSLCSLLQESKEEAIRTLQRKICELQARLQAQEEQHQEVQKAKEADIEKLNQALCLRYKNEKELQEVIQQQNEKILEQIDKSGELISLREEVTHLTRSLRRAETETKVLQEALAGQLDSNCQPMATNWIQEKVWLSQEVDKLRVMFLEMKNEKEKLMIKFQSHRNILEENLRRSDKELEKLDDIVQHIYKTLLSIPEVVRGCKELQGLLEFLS
UniProt Q99717: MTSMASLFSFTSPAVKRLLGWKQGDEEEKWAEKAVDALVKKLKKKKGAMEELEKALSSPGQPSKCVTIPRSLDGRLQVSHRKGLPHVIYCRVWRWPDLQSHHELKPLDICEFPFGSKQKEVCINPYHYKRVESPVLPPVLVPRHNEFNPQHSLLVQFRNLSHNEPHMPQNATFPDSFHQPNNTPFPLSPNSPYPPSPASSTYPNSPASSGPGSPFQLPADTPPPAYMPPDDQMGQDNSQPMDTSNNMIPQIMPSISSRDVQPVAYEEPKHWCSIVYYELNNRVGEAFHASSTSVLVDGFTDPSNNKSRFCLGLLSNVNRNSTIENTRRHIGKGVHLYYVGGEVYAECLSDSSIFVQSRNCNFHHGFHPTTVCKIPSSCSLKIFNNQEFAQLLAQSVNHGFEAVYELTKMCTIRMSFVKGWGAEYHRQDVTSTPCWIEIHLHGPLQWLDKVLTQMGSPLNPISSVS
UniProt P35610: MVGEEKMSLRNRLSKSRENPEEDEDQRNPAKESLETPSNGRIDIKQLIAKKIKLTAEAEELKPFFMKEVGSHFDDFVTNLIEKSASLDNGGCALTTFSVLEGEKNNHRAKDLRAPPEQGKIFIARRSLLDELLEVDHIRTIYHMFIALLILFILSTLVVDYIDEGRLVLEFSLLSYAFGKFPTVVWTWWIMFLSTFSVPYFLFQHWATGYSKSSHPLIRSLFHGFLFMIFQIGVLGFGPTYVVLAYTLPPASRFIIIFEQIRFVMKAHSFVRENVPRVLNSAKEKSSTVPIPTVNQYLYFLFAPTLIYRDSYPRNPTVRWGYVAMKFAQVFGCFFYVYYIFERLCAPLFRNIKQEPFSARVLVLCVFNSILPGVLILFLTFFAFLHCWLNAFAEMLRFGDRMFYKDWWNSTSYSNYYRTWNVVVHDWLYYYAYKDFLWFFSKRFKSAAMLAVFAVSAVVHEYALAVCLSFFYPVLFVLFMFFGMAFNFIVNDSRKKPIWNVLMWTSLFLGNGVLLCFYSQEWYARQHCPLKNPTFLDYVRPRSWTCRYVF
UniProt P62318, whole entry, looked up: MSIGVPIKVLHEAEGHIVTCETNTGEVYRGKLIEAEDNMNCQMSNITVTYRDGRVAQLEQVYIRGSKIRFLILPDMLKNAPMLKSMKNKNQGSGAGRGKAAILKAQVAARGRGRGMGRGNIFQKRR
UniProt Q96SB8: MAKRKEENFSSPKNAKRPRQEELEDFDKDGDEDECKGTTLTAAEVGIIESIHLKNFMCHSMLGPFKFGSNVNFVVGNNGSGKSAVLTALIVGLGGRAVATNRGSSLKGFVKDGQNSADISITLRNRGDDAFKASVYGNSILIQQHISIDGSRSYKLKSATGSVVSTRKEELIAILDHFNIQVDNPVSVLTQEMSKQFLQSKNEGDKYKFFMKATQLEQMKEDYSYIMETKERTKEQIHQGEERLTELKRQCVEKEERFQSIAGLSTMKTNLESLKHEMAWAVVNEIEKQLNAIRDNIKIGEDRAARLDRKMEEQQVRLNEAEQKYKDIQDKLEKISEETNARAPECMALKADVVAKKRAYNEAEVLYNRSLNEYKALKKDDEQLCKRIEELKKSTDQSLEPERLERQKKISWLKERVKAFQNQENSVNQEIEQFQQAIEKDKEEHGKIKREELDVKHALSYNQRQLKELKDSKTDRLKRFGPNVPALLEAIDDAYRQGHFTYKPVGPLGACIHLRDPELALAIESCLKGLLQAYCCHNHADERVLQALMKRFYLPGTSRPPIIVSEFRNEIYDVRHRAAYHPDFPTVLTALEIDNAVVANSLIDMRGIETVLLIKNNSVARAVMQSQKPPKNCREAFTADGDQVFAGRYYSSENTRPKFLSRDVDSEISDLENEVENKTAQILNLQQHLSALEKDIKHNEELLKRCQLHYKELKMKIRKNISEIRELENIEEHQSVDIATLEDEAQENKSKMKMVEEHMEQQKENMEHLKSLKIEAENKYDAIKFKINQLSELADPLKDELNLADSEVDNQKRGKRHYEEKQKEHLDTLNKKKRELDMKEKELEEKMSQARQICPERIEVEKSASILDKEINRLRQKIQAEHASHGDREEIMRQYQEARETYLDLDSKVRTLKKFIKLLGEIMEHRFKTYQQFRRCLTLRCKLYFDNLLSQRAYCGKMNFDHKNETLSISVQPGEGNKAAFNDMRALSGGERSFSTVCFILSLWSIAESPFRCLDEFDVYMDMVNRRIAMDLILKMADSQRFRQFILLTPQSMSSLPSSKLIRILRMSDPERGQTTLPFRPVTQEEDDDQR
UniProt P62314, whole entry, looked up: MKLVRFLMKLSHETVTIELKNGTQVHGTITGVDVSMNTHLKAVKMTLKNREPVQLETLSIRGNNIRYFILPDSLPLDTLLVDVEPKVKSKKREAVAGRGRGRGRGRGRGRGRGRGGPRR

These targets were tested with C1=CC=C(C=C1)[C@H](COC2=CC3=C(C=C2)NC(=O)N3)NC(=O)C4=CC=CN(C4=O)CC5=CC(=C(C=C5)F)F (assay: log2 fold change, soluble protein after heating vs DMSO (PISA); higher = thermal stabilisation; K562 cells, 10 uM, 30 min; active = over 0.2 and 3.5 SD of the protein, either way, in both replicates (recomputed)).
How it was run: (§1)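 Aliquots of K562 cells (2×10^6 cells/mL) treated with 10 μM compound for 30 min were heated for 3 min over 48°C-58°C. After pooling and extraction in PBS with 0.5% NP-40 at 4°C, soluble protein from a 21,000xg, 90 min spin was quantified by TMTpro 16plex LC-MS/MS with channel sums equalised. Thermal stability is expressed against control samples, from duplicates, as a log2 fold change.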
SMG7 isoform 4 (UniProt Q92540) was tested, and the log2 fold change was inactive: 0.152. With SNW1 (UniProt Q13573) the log2 fold change was inactive: 0.03. In the case of SNX8 (UniProt Q9Y5X2), the log2 fold change is reported as inactive: 0.009. SMCHD1 (UniProt A6NHR9) was tested, and the log2 fold change was inactive: 0.129. In the case of SMG9 (UniProt Q9H0W8), the log2 fold change is reported as inactive: -0.01. In the case of SMYD3 (UniProt Q9H7B4), the log2 fold change is reported as inactive: -0.119. SNTB2 (UniProt Q13425) was tested, and the log2 fold change was inactive: -0.128. In the case of SMARCC2 (UniProt Q8TAQ2), the log2 fold change is reported as inactive: -0.118. SPAG5 (UniProt Q96R06) was tested, and the log2 fold change was inactive: -0.099. In the case of SMAD5 (UniProt Q99717), the log2 fold change is reported as inactive: 0.059. With SOAT1 (UniProt P35610) the log2 fold change was inactive: -0.023. In the case of SNRPD3 (UniProt P62318), the log2 fold change is reported as inactive: 0.035. In the case of SMC6 isoform 2 (UniProt Q96SB8), the log2 fold change is reported as inactive: -0.09. For SMC5 (UniProt Q8IY18), the log2 fold change was inactive: 0.017. For SORBS1 isoform 12 (UniProt Q9BX66), the log2 fold change was inactive: -0.04.

The targets below were run with CC1=C(SC2=C1C(=N[C@H](C3=NN=C(N32)C)CC(=O)N)C4=CC=C(C=C4)Cl)C in the same assay as above.
How it was run: as §1
In the case of SNRPG (UniProt P62308), the log2 fold change is reported as inactive: 0.015. SMC1B isoform 3 (UniProt Q8NDV3) was tested, and the log2 fold change was inactive: 0.012. With SNUPN (UniProt O95149) the log2 fold change was inactive: 0.051. In the case of SNRPD1 (UniProt P62314), the log2 fold change is reported as inactive: 0.045. With SMAP (UniProt O00193) the log2 fold change was inactive: 0.011. SMIM4 (UniProt Q8WVI0) was tested, and the log2 fold change was inactive: -0.056. SP100 isoform 4 (UniProt P23497) was tested, and the log2 fold change was inactive: -0.015. In the case of SMARCA5 (UniProt O60264), the log2 fold change is reported as inactive: 0.063. SOX7 isoform 2 (UniProt Q9BT81) was tested, and the log2 fold change was inactive: -0.26. SNCA (UniProt P37840) was tested, and the log2 fold change was inactive: 0.086. With SMS (UniProt P52788) the log2 fold change was inactive: 0.001. With SMIM12 (UniProt Q96EX1) the log2 fold change was inactive: 0.135. For SOX5 (UniProt P35711), the log2 fold change was inactive: 0.005. In the case of SNRNP200 (UniProt O75643), the log2 fold change is reported as inactive: 0.01. In the case of SNX1 (UniProt Q13596), the log2 fold change is reported as inactive: 0.029. SNX6 (UniProt Q9UNH7) was tested, and the log2 fold change was inactive: 0.039. SLC7A6 (UniProt Q92536) was tested, and the log2 fold change was inactive: 0.023. With SMNDC1 (UniProt O75940) the log2 fold change was inactive: 0.015. In the case of SNRPF (UniProt P62306), the log2 fold change is reported as inactive: -0.065. With SNX11 (UniProt Q9Y5W9) the log2 fold change was inactive: 0.063. For SMPD4 isoform 4 (UniProt Q9NXE4), the log2 fold change was inactive: 0.031. SNX2 (UniProt O60749) was tested, and the log2 fold change was inactive: 0.069. SLK isoform 2 (UniProt Q9H2G2) was tested, and the log2 fold change was inactive: 0.034. With SMG7 isoform 4 (UniProt Q92540) the log2 fold change was inactive: -0.115. SNW1 (UniProt Q13573) was tested, and the log2 fold change was inactive: 0.015. For SNX8 (UniProt Q9Y5X2), the log2 fold change was inactive: 0.041. In the case of SMCHD1 (UniProt A6NHR9), the log2 fold change is reported as inactive: 0.141. With SMG9 (UniProt Q9H0W8) the log2 fold change was inactive: 0.049. SMYD3 (UniProt Q9H7B4) was tested, and the log2 fold change was inactive: 0.041. In the case of SNTB2 (UniProt Q13425), the log2 fold change is reported as inactive: 0.071. With SMARCC2 (UniProt Q8TAQ2) the log2 fold change was inactive: 0.016. SPAG5 (UniProt Q96R06) was tested, and the log2 fold change was inactive: -0.015. In the case of SMAD5 (UniProt Q99717), the log2 fold change is reported as inactive: 0.033. For SOAT1 (UniProt P35610), the log2 fold change was inactive: 0.037. In the case of SNRPD3 (UniProt P62318), the log2 fold change is reported as inactive: -0.029. For SMC6 isoform 2 (UniProt Q96SB8), the log2 fold change was inactive: 0.041. In the case of SMC5 (UniProt Q8IY18), the log2 fold change is reported as inactive: 0.045. In the case of SORBS1 isoform 12 (UniProt Q9BX66), the log2 fold change is reported as inactive: 0.06.

What follows are targets tested with CC1=C2C(=CC=C1)N=C(N(C2=O)C3=CC=CC=C3C)CN4C=NC5=C(N=CN=C54)N in the same assay as above.
How it was run: as §1
In the case of SNRPG (UniProt P62308), the log2 fold change is reported as inactive: 0.021. With SMC1B isoform 3 (UniProt Q8NDV3) the log2 fold change was inactive: 0.124. SNUPN (UniProt O95149) was tested, and the log2 fold change was inactive: 0.067. In the case of SNRPD1 (UniProt P62314), the log2 fold change is reported as inactive: -0.004. For SMAP (UniProt O00193), the log2 fold change was inactive: 0.03. With SMIM4 (UniProt Q8WVI0) the log2 fold change was inactive: 0.023. SP100 isoform 4 (UniProt P23497) was tested, and the log2 fold change was inactive: -0.047. For SMARCA5 (UniProt O60264), the log2 fold change was inactive: 0.105. In the case of SOX7 isoform 2 (UniProt Q9BT81), the log2 fold change is reported as inactive: -0.205. In the case of SNCA (UniProt P37840), the log2 fold change is reported as inactive: 0.017. In the case of SMS (UniProt P52788), the log2 fold change is reported as inactive: 0.003. SMIM12 (UniProt Q96EX1) was tested, and the log2 fold change was inactive: 0.275. In the case of SOX5 (UniProt P35711), the log2 fold change is reported as inactive: -0.058. With SNRNP200 (UniProt O75643) the log2 fold change was inactive: -0.003. With SNX1 (UniProt Q13596) the log2 fold change was inactive: 0.038. For SNX6 (UniProt Q9UNH7), the log2 fold change was inactive: 0.053. With SLC7A6 (UniProt Q92536) the log2 fold change was inactive: 0.053. In the case of SMNDC1 (UniProt O75940), the log2 fold change is reported as inactive: -0.066. For SNRPF (UniProt P62306), the log2 fold change was inactive: -0.224. In the case of SNX11 (UniProt Q9Y5W9), the log2 fold change is reported as inactive: 0.108. SMPD4 isoform 4 (UniProt Q9NXE4) was tested, and the log2 fold change was inactive: 0.043. In the case of SNX2 (UniProt O60749), the log2 fold change is reported as inactive: 0.066. For SLK isoform 2 (UniProt Q9H2G2), the log2 fold change was inactive: 0.042. For SMG7 isoform 4 (UniProt Q92540), the log2 fold change was inactive: 0.103. For SNW1 (UniProt Q13573), the log2 fold change was inactive: -0.036. With SNX8 (UniProt Q9Y5X2) the log2 fold change was inactive: 0.008. With SMCHD1 (UniProt A6NHR9) the log2 fold change was inactive: 0.063. SMG9 (UniProt Q9H0W8) was tested, and the log2 fold change was inactive: 0.057. With SMYD3 (UniProt Q9H7B4) the log2 fold change was inactive: 0.105. With SNTB2 (UniProt Q13425) the log2 fold change was inactive: 0.092. SMARCC2 (UniProt Q8TAQ2) was tested, and the log2 fold change was inactive: 0.033. In the case of SPAG5 (UniProt Q96R06), the log2 fold change is reported as inactive: -0.001. SMAD5 (UniProt Q99717) was tested, and the log2 fold change was inactive: 0.069. SOAT1 (UniProt P35610) was tested, and the log2 fold change was inactive: 0.071. In the case of SNRPD3 (UniProt P62318), the log2 fold change is reported as inactive: 0. In the case of SMC6 isoform 2 (UniProt Q96SB8), the log2 fold change is reported as inactive: 0.005. For SMC5 (UniProt Q8IY18), the log2 fold change was inactive: -0.006. In the case of SORBS1 isoform 12 (UniProt Q9BX66), the log2 fold change is reported as inactive: 0.072.
